Screening data, single-dose tests

Protein sequences, listed by entry. Tags and fused reporters are not part of them.
UniProt P9WFT3, whole entry: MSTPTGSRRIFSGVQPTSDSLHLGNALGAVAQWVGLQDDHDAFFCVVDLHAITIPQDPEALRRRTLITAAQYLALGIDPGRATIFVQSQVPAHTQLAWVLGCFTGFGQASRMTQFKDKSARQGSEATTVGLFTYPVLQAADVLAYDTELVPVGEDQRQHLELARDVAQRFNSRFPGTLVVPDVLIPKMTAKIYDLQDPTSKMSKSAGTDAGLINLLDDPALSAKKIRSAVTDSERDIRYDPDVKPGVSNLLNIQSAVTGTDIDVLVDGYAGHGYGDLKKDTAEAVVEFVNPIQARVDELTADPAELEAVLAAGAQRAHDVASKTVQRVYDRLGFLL
UniProt P9WNZ1, whole entry: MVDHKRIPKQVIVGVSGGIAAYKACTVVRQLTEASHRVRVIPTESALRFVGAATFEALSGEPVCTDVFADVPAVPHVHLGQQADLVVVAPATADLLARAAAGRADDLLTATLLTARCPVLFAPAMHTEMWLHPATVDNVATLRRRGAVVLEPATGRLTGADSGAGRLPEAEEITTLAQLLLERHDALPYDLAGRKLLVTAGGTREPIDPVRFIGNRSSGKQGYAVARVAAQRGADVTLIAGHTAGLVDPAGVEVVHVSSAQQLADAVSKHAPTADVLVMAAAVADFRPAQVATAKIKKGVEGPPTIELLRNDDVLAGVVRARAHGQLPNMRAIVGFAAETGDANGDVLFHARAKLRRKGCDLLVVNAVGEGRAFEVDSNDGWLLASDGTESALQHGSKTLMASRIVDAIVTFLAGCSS

Data taken from ChEMBL document CHEMBL3988442, “University of Dundee, Small-Polar-MMV Screening Library” (2021).

Leishmania in macrophages: 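Cell assay of Leishmania donovani living inside macrophages; the read-out is not stated. Concentration: 30 µM. Direction is inferred from retests: higher values go with stronger inhibition. Size under these conditions: about 69,000 compounds, about 1,000 of them at 50% or above in at least one test.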
MtTrpRS: 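Enzyme assay of tryptophanyl-tRNA synthetase; the read-out is not stated. Target: Tryptophan-tRNA ligase, Mycobacterium tuberculosis (UniProt P9WFT3). Concentration: 10 µM. Higher most likely means stronger inhibition; the record gives no direction and few retests gave an IC50. Size under these conditions: about 65,000 compounds, about 64 of them at 50% or above in at least one test.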
Toxoplasma: 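Assay of Toxoplasma gondii numbers, read through their beta-galactosidase reporter with a colour substrate. Tested at 10 µM. Higher reads as fewer parasites (inferred from which compounds were picked for retests). About 67,000 compounds were tested under these conditions; 0.38% (about 260) showed 50% or more at least once.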
CoaBC: 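Enzyme assay of CoaBC with a phosphate dye (Biomol Green) read at 650 nm. Target: Coenzyme A biosynthesis protein CoaBC, Mycobacterium tuberculosis (UniProt P9WNZ1). Tested at 30 µM. Direction is inferred from only a few compounds that gave an IC50; most scored high, so higher reads as stronger inhibition. Most strong results did not repeat in a second test. Size under these conditions: about 67,000 compounds, about 40 of them at 50% or above in at least one test.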

The filed quantity is “Percent Effect” (%). The record does not define 0% and 100%; most values in the screen are far below 50% and negative numbers occur (in some assays of this library far below -100). Compounds were drawn at random from those tested, without regard to their results.

CC(C)c1cc(N2CCC(CCC(=O)NC3CC3)CC2)n2nccc2n1 gave Leishmania in macrophages: -14.57%; MtTrpRS: 1.921%; Toxoplasma: -3.125%; CoaBC: 10.09%. c1ccc(CN2CCc3ncnc(C4CC4)c3CC2)nc1 read MtTrpRS: -3.091%; CoaBC: -1.932%. Cc1ccc(=O)n(Cc2nc(C(C)OCC(C)C)no2)n1 (centres unmarked) read Leishmania in macrophages: -6.235%; MtTrpRS: -2.651%; Toxoplasma: -1.189%; CoaBC: 2.581%. Cc1ccc(-c2nc(CCNC(=O)C3CC(=O)N(C)C3)cs2)cc1 (centres unmarked) gave Leishmania in macrophages: 0.5589%; MtTrpRS: 5.141%; Toxoplasma: 14.33%; CoaBC: 0.128%.

CS(=O)(=O)NCC(=O)NCc1cccnc1-n1cnc2ccccc21 gave Leishmania in macrophages: -6.653%; MtTrpRS: 2.673%; Toxoplasma: 4.123%; CoaBC: 1.984%. Cc1nn(C)c(C)c1C1CCCN1C(=O)c1ccc2c(c1)OCCO2 (centres unmarked) gave Leishmania in macrophages: 13.17%; MtTrpRS: -10.88%; Toxoplasma: -7.88%; CoaBC: 16.89%. CC(C)Cc1noc(CC2CCS(=O)(=O)C2)n1 (centres unmarked) gave Leishmania in macrophages: -24.2%; MtTrpRS: -0.7401%; Toxoplasma: 7.606%; CoaBC: 4.049%. With CCOCc1ccccc1NC(=O)NCC(C)(O)c1ccsc1 (centres unmarked) the screen gave Leishmania in macrophages: 1.704%; MtTrpRS: -2.785%; Toxoplasma: 13.4%; CoaBC: 7.78%.

With COCCN1CCc2cc(C(=O)NCC3CC3)c(NC(C)C)nc2CC1 the screen gave MtTrpRS: -1.154%; CoaBC: 0.6345%. For O=C(O)C(F)(F)F.[H][C@@]12COC[C@]1(CNC(=O)c1cccn1C)CN(Cc1nccs1)C2 the result was Leishmania in macrophages: 19.82%; Toxoplasma: -2.013%. c1cc(CCN2CCC(c3n[nH]c(C4CC4)n3)CC2)ccn1 read Leishmania in macrophages: -3.971%; MtTrpRS: 12.97%; Toxoplasma: 0.2674%; CoaBC: -0.9823%. CC(C)(C)n1cc(NCc2cscn2)cn1 read Leishmania in macrophages: 16.17%; MtTrpRS: 1.33%; Toxoplasma: 4.545%; CoaBC: -7.393%.

COc1ccc(C(=O)Nc2cnn(CC(=O)NC3CCCC3)c2)c(O)c1 gave Leishmania in macrophages: 8.702%; MtTrpRS: 0.7401%; Toxoplasma: 17.52%; CoaBC: 14.41%. COc1ccc(-c2nc(CCNC(=O)NCC3CCOC3)co2)cc1 (centres unmarked) gave Leishmania in macrophages: 22.04%; MtTrpRS: 0.0657%; Toxoplasma: -1.546%; CoaBC: 0.7009%. Cc1noc(C)c1CN1CCN(C)c2ncccc2C1.O=C(O)C(F)(F)F.O=C(O)C(F)(F)F gave Leishmania in macrophages: 43.27%; Toxoplasma: -18.21%. For CC(C)=CCS(=O)(=O)Cc1nc(C(C)C)no1 the result was Leishmania in macrophages: -1.927%; MtTrpRS: -0.06345%; Toxoplasma: 1.335%; CoaBC: 3.722%.

[H][C@]12CN(C(=O)OC)CCN1C[C@@H](c1ccccc1)[C@@H]2C(=O)OCC gave Leishmania in macrophages: 4.235%; Toxoplasma: 6.008%. OCC1(NCc2cnc(-c3ccsc3)s2)CCOCC1 read Leishmania in macrophages: 15.27%; MtTrpRS: -0.5025%; Toxoplasma: -1.949%; CoaBC: 6.59%. Result for [H][C@]12CC[C@@]3(N=C(C)NC3=O)[C@@]1([H])CN(C(=O)NCc1ccccc1C)C2 was Leishmania in macrophages: 19.47%; Toxoplasma: -4.529%. For CN(CC(=O)N(CCC#N)c1ccccc1)C1CCc2ccccc21 (centres unmarked) the result was Leishmania in macrophages: 8.928%; MtTrpRS: -5.059%; Toxoplasma: 1.546%; CoaBC: -4.907%.

For [H][C@@]12CCCCN(C)[C@]1([H])[C@@H](c1ccccc1)CCN2S(=O)(=O)N(CC)CC the result was Leishmania in macrophages: -3.629%; Toxoplasma: -1.034%. COc1ccc2c(c1)CCCN(C(C)C(=O)N1CCCC1)C2 (centres unmarked) gave Leishmania in macrophages: 15.64%; MtTrpRS: 2.477%; Toxoplasma: 1.256%. Result for CC(=O)N1Cc2ccccc2OC2(CCN(C(=O)C3CC3)CC2)C1 was Leishmania in macrophages: -15.69%; MtTrpRS: 9.29%; Toxoplasma: -3.101%; CoaBC: -5.128%. For O=C(NCCN1CCCCC1)c1scnc1Cl the result was Leishmania in macrophages: 13.62%; MtTrpRS: 0.09747%; Toxoplasma: -3.202%; CoaBC: 3.84%.

Cc1nc[nH]c1CN(C)CC1CCCN(CCc2ccc(Cl)cc2)C1 (centres unmarked) read Leishmania in macrophages: 95.69%; MtTrpRS: -2.067%; Toxoplasma: 4.926%; CoaBC: -38.17%.

2 of the entries, repeated:

structure,Leishmania in macrophages,MtTrpRS,Toxoplasma,CoaBC
c1cc(CCN2CCC(c3n[nH]c(C4CC4)n3)CC2)ccn1,-3.971,12.97,0.2674,-0.9823
CC(C)(C)n1cc(NCc2cscn2)cn1,16.17,1.33,4.545,-7.393